Measurements taken from article PMC2654154, “Molecular Basis of Filamin A-FilGAP Interaction and Its Impairment in Congenital Disorders Associated with Filamin A Mutations” (PLoS ONE, 2009).

T1: MBP-His-FilGAP 649–748 (human) (UniProt Q8N264)
T1 sequence: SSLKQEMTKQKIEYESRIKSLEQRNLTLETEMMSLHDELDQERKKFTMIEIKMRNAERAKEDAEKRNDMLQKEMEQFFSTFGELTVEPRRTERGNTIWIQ


Experiments:
[1] = target: T1, MBP-His-FilGAP 649–748 (human); assay: pull-down; amylose resin coated with various concentrations of MBP-FilGAP 649–748; FLNa or its truncates in binding buffer, 1 h, 25°C; CBB or silver staining or immunoblot; both purified
[2] = target: GST-IgFLNa20-24 D2467E (human); assay: pull-down; increasing amounts of GST-IgFLNa20-24 on glutathione beads; full-length FilGAP input 10 nM constant; immunoblot for FilGAP; both purified
[3] = target: GST-IgFLNa20-24, wild type (human); assay: as above
[4] = target: GST-IgFLNa20-24 A2461T (human); assay: as above
[5] = target: GST-IgFLNa20-24 Y2483H (human); assay: as above

Row | binding [2] | binding [3] | binding [4] | binding [5] | Molecule | binding [1]
1 |  |  |  |  | IgFLNc23-24 (domain or fragment) | no binding (tested: 0.2 uM repeats 23–24)
2 |  |  |  |  | IgFLNa23-24 (human) (domain or fragment) | binds
3 |  |  |  |  | IgFLNb23-24 (domain or fragment) | no binding (tested: 0.2 uM repeats 23–24)
4 | binds | binds | no binding (tested: 10 nM FilGAP input) | no binding (tested: 10 nM FilGAP input) | full-length FilGAP, purified from Sf9 insect cells (natural protein, human, UniProt Q8N264 1-748, looked up, FilGAP, human, full length; Tag-free FilGAP was prepared from His-FilGAP with TEV protease; also called Purified FilGAP; source: Sf9 cells, purified (Ni-NTA)) MEENNDSTENPQQGQGRQNAIKCGWLRKQGGFVKTWHTRWFVLKGDQLYYFKDEDETKPLGTIFLPGNKVSEHPCNEENPGKFLFEVVPGGDRDRMTANHESYLLMASTQNDMEDWVKSIRRVIWGPFGGGIFGQKLEDTVRYEKRYGNRLAPMLVEQCVDFIRQRGLKEEGLFRLPGQANLVKELQDAFDCGEKPSFDSNTDVHTVASLLKLYLRELPEPVIPYAKYEDFLSCAKLLSKEEEAGVKELAKQVKSLPVVNYNLLKYICRFLDEVQSYSGVNKMSVQNLATVFGPNILRPKVEDPLTIMEGTVVVQQLMSVMISKHDCLFPKDAELQSKPQDGVSNNNEIQKKATMGQLQNKENNNTKDSPSRQCSWDKSESPQRSSMNNGSPTALSGSKTNSPKNSVHKLDVSRSPPLMVKKNPAFNKGSGIVTNGSFSSSNAEGLEKTQTTPNGSLQARRSSSLKVSGTKMGTHSVQNGTVRMGILNSDTLGNPTNVRNMSWLPNGYVTLRDNKQKEQAGELGQHNRLSTYDNVHQQFSMMNLDDKQSIDSATWSTSSCEISLPENSNSCRSSTTTCPEQDFFGGNFEDPVLDGPPQDDLSHPRDYESKSDHRSVGGRSSRATSSSDNSETFVGNSSSNHSALHSLVSSLKQEMTKQKIEYESRIKSLEQRNLTLETEMMSLHDELDQERKKFTMIEIKMRNAERAKEDAEKRNDMLQKEMEQFFSTFGELTVEPRRTERGNTIWIQ | 

These are yes or no findings as the source states them, for the method shown. For some of these results: Binding can be weak; no strength is given. For some of these results: Sequences can lack the tags named with a protein.
